# Measured values taken from PubChem BioAssay AID1671190 (National Center for Advancing Translational Sciences (NCATS), 2021).
# The chains behind the UniProt entries cited, without tags or fusion partners. Where a name states a change or a piece, a line headed by the entry shows the natural chain unless it says otherwise.
# UniProt P18054: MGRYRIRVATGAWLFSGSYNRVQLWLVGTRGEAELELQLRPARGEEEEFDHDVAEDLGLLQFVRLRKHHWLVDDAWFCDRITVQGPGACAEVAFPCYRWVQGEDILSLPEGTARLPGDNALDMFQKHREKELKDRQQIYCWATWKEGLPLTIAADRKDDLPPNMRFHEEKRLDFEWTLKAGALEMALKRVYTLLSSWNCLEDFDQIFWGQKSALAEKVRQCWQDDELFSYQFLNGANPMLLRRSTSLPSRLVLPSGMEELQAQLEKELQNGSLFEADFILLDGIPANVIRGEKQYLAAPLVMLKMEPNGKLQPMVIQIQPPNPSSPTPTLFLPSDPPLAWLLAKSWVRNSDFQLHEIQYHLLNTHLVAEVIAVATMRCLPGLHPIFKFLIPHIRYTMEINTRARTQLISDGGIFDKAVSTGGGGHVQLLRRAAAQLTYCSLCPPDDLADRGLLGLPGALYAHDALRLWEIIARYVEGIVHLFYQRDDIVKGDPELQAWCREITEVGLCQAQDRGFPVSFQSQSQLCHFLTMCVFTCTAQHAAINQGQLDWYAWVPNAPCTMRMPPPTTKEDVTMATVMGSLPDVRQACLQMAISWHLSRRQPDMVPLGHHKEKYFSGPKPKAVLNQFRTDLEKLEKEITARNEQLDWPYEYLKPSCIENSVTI
# The whole screen tested about 580,000 compounds, of which about 6,100 (1.1%) were called active. This list was built around the results that the source calls inconclusive (neither active nor inactive); the mix of calls is not that of the screen. The call rests on the fitted dose curve; in most records, active means well fitted inhibition curve with a large enough effect; inconclusive means small, poorly fitted or top-dose-only effect, or another doubt; inactive means no such curve, though single readings can be large or run the other way. Where the call is inconclusive, the potency comes from a doubtful curve fit.
# Target: Polyunsaturated fatty acid lipoxygenase ALOX12 (Homo sapiens) (UniProt P18054)
# Assay: Primary qHTS assay for inhibitors of human arachidonate 12S-lipoxygenase (ALOX12): Round 2
# Settings: purified 12hLO, xylenol orange hydroperoxide absorbance; activity change, negative = inhibition: at 108 µM (top of the series) unless noted
# Procedure, shortened: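 Hydroperoxide product was detected by ferrous iron/xylenol orange as the 573 to 405 nm absorbance ratio. Arachidonic acid at 40 uM (final) was turned over for 30 min at room temperature by 150 nM human 12hLO, pH 7.0 Hepes buffer, after 15 min compound preincubation.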
# On the % scale 0 is the no-effect control and ±100 the full control effect; potency means the concentration at half of the fitted maximal effect.
Structure (SMILES),Potency,"activity change, negative = inhibition"
COC(=O)C(c1ccccc1)(c1cn(C)c2ccccc12)C(Nc1ccccc1)c1ccc(C)cc1 (configuration not stated),"inconclusive: 89.1 µM [inhibitor, partial curve, poor fit]",
Cc1ccccc1NC(=O)CSc1[nH]c(=O)cc(C)c1C#N,"inconclusive: 28.2 µM [inhibitor, partial curve]",
Cc1cccc(C)c1NC(=O)C(c1ccccc1F)n1c(=O)c(-c2ccco2)nc2ccccc21 (configuration not stated),"inconclusive: 39.8 µM [inhibitor, partial curve, poor fit]",
CN1CCC(Oc2ccc(Sc3ccccc3)cc2)CC1,,inactive: -28.2%
Cc1cccc(N2CCN(C(C(=O)O)c3cn(C)c4cc(C(=O)O)ccc34)CC2)c1C (configuration not stated),"inconclusive: 28.2 µM [inhibitor, single point]",
C[n+]1cccc(C(=O)N/N=C/c2ccc3c(c2)OCO3)c1,"inconclusive: 44.7 µM [inhibitor, partial curve]",
O=C(COC(=O)c1cccc(-n2cnnn2)c1)c1ccc(F)cc1,"inconclusive: 44.7 µM [inhibitor, partial curve, poor fit]",
O=C(c1cccnc1)N(c1cc2sc(=O)oc2c2ccccc12)S(=O)(=O)c1ccccc1,active: 15.8 µM,
CCCCCn1c(COc2ccc(C(C)(C)C)cc2)n[nH]c1=S,"inconclusive: 39.8 µM [inhibitor, partial curve, poor fit]",
Cc1c(-c2csc(N)n2)cnn1C,"inconclusive: 50.1 µM [inhibitor, single point]",
CCS(=O)(=O)N(Cc1ccc(Cl)c(Cl)c1)c1c(C)n(C)n(-c2ccccc2)c1=O,"inconclusive: 35.5 µM [inhibitor, partial curve, poor fit]",
Cc1ccc(C2=C(O)C(=O)C(c3ccc(C)cc3)=C(O)C2=O)cc1,active: 1.12 µM,
Cc1ccc(NC(=O)c2ncn(CCCN3CCN(c4ccccn4)CC3)n2)cc1C,"inconclusive: 100 µM [inhibitor, partial curve, poor fit]",
CSc1ccc(CN2CCN(S(=O)(=O)Cc3ccccc3)CC2)cc1,,inactive: -18.1%
CCCS(=O)(=O)NCc1nnnn1-c1ccc(OCC)cc1,"inconclusive: 89.1 µM [inhibitor, single point]",
Cc1cccc(Oc2c(C(F)(F)F)oc3cc(OCC(=O)OCCC(C)C)ccc3c2=O)c1,,inactive: 11.5%
Cc1cccc(N2CCN(C(=O)c3ccc4c(=O)[nH]c5c(C(=O)NC6CCCC6)sc(=S)n5c4c3)CC2)c1C,"inconclusive: 3.98 µM [inhibitor, full curve, poor fit]",
CC(Sc1nc2ccccc2o1)C(=O)Nc1ccc(Cl)cc1 (configuration not stated),,inactive: -8.3%
FC(F)(F)c1ccccc1Cc1c(-c2ccco2)nc2c3ccccc3ccn12,"inconclusive: 100 µM [inhibitor, partial curve, poor fit]",
COc1cccc(C(=O)OCC(=O)NC23CC4CC(CC(C4)C2)C3)c1,,inactive: -2.65%
CCCc1nnc(NC(=O)CCC(=O)N2CCN(Cc3ccc(Cl)cc3)CC2)s1,"inconclusive: 3.16 µM [inhibitor, full curve, poor fit]",

# Look-ups from the results shown:
# CN1CCC(Oc2ccc(Sc3ccccc3)cc2)CC1 – activity change, negative = inhibition: inactive: -28.2%
# CCCCCn1c(COc2ccc(C(C)(C)C)cc2)n[nH]c1=S – Potency: inconclusive: 39.8 µM [inhibitor, partial curve, poor fit]
# CCCS(=O)(=O)NCc1nnnn1-c1ccc(OCC)cc1 – Potency: inconclusive: 89.1 µM [inhibitor, single point]
# CC(Sc1nc2ccccc2o1)C(=O)Nc1ccc(Cl)cc1 (configuration not stated) – activity change, negative = inhibition: inactive: -8.3%

# Further structures.

Structure (SMILES),Potency,"activity change, negative = inhibition"
S=C(NCc1ccccc1Cl)Nc1ccccc1Cl,"inconclusive: 39.8 µM [inhibitor, partial curve, poor fit]",
CC(C)CN1C(=O)C(=O)N(CC(=O)c2ccc3c(c2)CCCC3)C1=O,"inconclusive: 20 µM [inhibitor, full curve, poor fit]",
Cc1nn(-c2ccc(Cl)cc2)c(=O)c2ccccc12,"inconclusive: 89.1 µM [inhibitor, partial curve, poor fit]",
Cc1ccc2c(c1)c1c(c(=O)n(-c3ccccc3C)c(=O)n1CC(=O)N1CCCC1)n2C,,inactive: -0.849%
O=C(Nc1ccccc1Cl)c1ccc2ccccc2n1,"inconclusive: 3.16 µM [inhibitor, full curve]",
Cc1ccc(NC(=O)CN(C)Cc2c(O)ccc3ccccc23)cc1,"inconclusive: 7.08 µM [inhibitor, full curve, poor fit]",
Cc1cccc(-c2nc3c(NCc4cccc(N(C)C)c4)nccc3[nH]2)c1,"inconclusive: 100 µM [inhibitor, single point]",
O=C(O)/C=C/C(=O)NNC(=O)c1cc(-c2ccccc2)n[nH]1,"inconclusive: 39.8 µM [inhibitor, partial curve, poor fit]",
O=C1C(c2cc(=O)c3ccccc3[nH]2)=C(O)c2ccccc21,,inactive: -10.2%
COc1ccc2cc(CN(C)C(C)C(=O)Nc3cc(C)ccc3C)ccc2c1 (configuration not stated),,inactive: -2.08%
C=CCn1c(-c2csc3c2CCC(C)C3)n[nH]c1=S (configuration not stated),"inconclusive: 3.98 µM [inhibitor, full curve, poor fit]",
O=C1NC(=Nc2ccc3ccccc3c2)S/C1=C/c1ccco1,active: 31.6 µM,
CCOc1ccccc1CN1CCC2(CCN(C(=O)Cc3ccc(F)cc3)CC2)Oc2ccccc21,"inconclusive: 31.6 µM [inhibitor, partial curve]",
Brc1ccccc1N=Cc1ccc(-c2ccccc2)cc1,,inactive: 11.2%
COc1ccccc1CNC(=O)c1c(C)oc2ccn(Cc3cccc(F)c3)c(=O)c12,"inconclusive: 28.2 µM [inhibitor, full curve, poor fit]",
COCCn1c(=O)c(C)nc2cnc(Oc3ccccc3)nc21,"inconclusive: 25.1 µM [inhibitor, partial curve, poor fit]",
COc1cc(/C=C/c2nc(C#N)c(N(C)C)o2)cc(OC)c1OC,"inconclusive: 14.1 µM [inhibitor, partial curve, poor fit]",
CCc1ccc(C2c3[nH]c4ccccc4c3CCN2C(=O)CN2CCN(CC)CC2)cc1 (configuration not stated),"inconclusive: 112 µM [inhibitor, single point]",
CN1CCc2c(sc3nc(SCC(=O)N4CCOCC4)n(-c4ccc(Cl)cc4)c(=O)c23)C1,,inactive: 49%
Cc1cc(Cl)ccc1OCc1nnc2n1CCCCC2,"inconclusive: 126 µM [inhibitor, single point]",
CCC(=O)N1CCC(N(C(=O)CC)C2CCOCC2)CC1,,inactive: 32.6%
